Measurements from “University of Dundee, Small-Polar-MMV Screening Library” (2021), ChEMBL document CHEMBL3988442.

Sequences of proteins named here, by UniProt entry; tags and fusion partners are left off. Residues count along the entry.
UniProt P9WFT3, whole entry: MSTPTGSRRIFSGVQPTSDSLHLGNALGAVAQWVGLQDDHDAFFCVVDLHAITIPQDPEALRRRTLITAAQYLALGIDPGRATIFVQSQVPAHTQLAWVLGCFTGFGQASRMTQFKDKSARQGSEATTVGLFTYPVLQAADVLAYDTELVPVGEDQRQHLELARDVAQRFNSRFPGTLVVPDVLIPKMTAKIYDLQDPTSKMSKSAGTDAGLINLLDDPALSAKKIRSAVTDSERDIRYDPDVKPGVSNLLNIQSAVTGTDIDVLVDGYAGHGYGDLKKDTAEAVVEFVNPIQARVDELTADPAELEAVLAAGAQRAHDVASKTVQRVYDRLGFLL
UniProt Q4DA54, 1-478: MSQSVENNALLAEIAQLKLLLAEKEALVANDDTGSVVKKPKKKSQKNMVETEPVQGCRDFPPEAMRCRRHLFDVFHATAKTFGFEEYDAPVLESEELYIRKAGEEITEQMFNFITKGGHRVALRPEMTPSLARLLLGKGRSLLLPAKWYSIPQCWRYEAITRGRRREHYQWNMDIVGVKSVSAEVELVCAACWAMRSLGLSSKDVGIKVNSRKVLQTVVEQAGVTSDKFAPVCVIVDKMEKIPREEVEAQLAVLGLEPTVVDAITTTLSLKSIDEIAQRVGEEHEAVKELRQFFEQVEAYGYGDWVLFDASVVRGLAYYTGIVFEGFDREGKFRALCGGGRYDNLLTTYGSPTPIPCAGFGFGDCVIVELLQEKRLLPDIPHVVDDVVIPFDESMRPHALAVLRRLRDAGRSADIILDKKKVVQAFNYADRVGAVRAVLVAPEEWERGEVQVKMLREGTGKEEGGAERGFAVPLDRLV

A: 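Enzyme assay of tryptophanyl-tRNA synthetase; the read-out is not stated. Target: Tryptophan-tRNA ligase, Mycobacterium tuberculosis (UniProt P9WFT3). Concentration: 10 µM. Direction is not recorded; retested compounds ran higher, which suggests that high means inhibition. Of about 65,000 compounds tested this way, about 64 (0.098%) reached 50% or more in at least one test.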
B: 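Cell assay of Leishmania donovani living inside macrophages; the read-out is not stated. Compounds at 30 µM. The record gives no direction; compounds that gave an IC50 in retests scored well above the rest, so higher reads as stronger inhibition. About 69,000 compounds were tested under these conditions; 1.5% (about 1,000) showed 50% or more at least once.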
C: 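Enzyme assay of histidyl-tRNA synthetase; the read-out is not stated. Target: Histidine-tRNA ligase, Trypanosoma cruzi CL Brener (UniProt Q4DA54). Concentration: 30 µM. Direction is inferred from retests: higher values go with stronger inhibition. Size under these conditions: about 69,000 compounds, about 31 of them at 50% or above in at least one test.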

The filed quantity is “Percent Effect” (%).
How 0% and 100% were set is not recorded. Most values in the screen are low, and negative values occur.
Compounds were drawn at random from those tested, without regard to their results.
Two or more numbers in one place are separate tests of the same structure; such repeats can differ widely.
A dash means the value is not listed here; it may have been measured.

| structure | A | B | C |
|---|---|---|---|
| `CNC(=O)c1cc(C)n(-c2ccccc2)n1` | - | 21.3 | 5.682 |
| `Cc1c[nH]nc1C1CCCCN1C(=O)Cn1cc(Cl)cn1` (stereo not drawn) | -0.4167 | 19.21 | -41.94 |
| `CN(C)CCC(Nc1nc(N)nc2c1CCNCC2)c1ccccc1` (stereo not drawn) | -0.2719 | 32.43 | 1.22 |
| `Cc1ccc(C(=O)NCc2ccnc(C3CCCOC3)n2)s1` (stereo not drawn) | 8.943 | -5.953 | -1.695 |
| `CS(=O)(=O)N1C[C@H]2CC[C@@H]1CN(Cc1ccncc1)C2` | -0.6415 | - | 2.609 |
| `CNc1nc(C(=O)N2C[C@@H]3CCN(C)[C@@H]3C2)cs1` | 2.717 | - | 2.062 |
| `CC(C)c1noc(CCC(=O)NCC2CCS(=O)(=O)C2)n1` (stereo not drawn) | -1.267 | 3.149 | 4.151 |
| `CN(CCC1CCCCO1)c1nncc(-c2ccccc2)n1` (stereo not drawn) | -5.542 | 22.42 | 6.122 |
| `NC(=O)c1c(-c2ccc(Cl)cc2Cl)csc1NC(=O)CCCC(=O)O` | -0.9492 | 22.45 | 3.727 |
| `Cc1cc(C)n(CC2CCCN2C(=O)c2ccc(N(C)C)nn2)n1` (stereo not drawn) | 1.751 | 13.84 | -1.433 |
| `Cc1cnn(CCNCc2ccc(C#N)cc2F)c1` | -1.458 | 6.872 | 0.3831 |
| `CCN(CC)C(=O)CNC(=O)N1CCC(c2ccc(OC)cc2)C1` (stereo not drawn) | 9.325 | 17.37 | 1.026 |
| `Cn1cc(C(=O)NCc2cncc3c2CCN(S(C)(=O)=O)C3)cn1` | - | - | 2.513 |
| `Cc1ccc(CC(=O)N2CCCC(c3cc(C)[nH]n3)C2)cn1` (stereo not drawn) | 1.652 | 12.8 | -0.3831 |
| `Cc1cc(NC(=O)NCCc2cccnc2)n(C)n1` | -1.57 | 18.31 | 6.349 |
| `CCCn1cc(NC(=O)c2cccc(CN3CC[C@H](O)C3)c2)nn1` | 3.695 | -29.22 | 13.1 |
| `CC(=O)NCCc1cn(-c2cc(F)ccc2C)cn1` | 0.7807 | 23.86 | 8.046 |
| `Cc1ccc(C(NCC(=O)N2CCNC(=O)C2)C(F)(F)F)cc1` (stereo not drawn) | 0.7712 | 20.6 | 9.202 |
| `CCn1nc2c(cc1=O)CN(Cc1nc(C)c3ccccc3n1)CC2` | 0.581 | -37.1 | 13.9 |
| `Cc1nn(C)c(C)c1C1COCCN1c1ncnc2c(C)cccc12` (stereo not drawn) | 3.114 | 14.31 | 11.67 |
| `CC(C)(C)NC(=O)CN1CCNCC1` | 3.307 | - | 2.646 |
| `COc1ncccc1CN1CCC2(CC1)CC(OCC1CC1)CO2.O=C(O)C(F)(F)F` (stereo not drawn) | - | 9.137 | - |
| `CCn1nc(C)c(CN(C)S(=O)(=O)c2cnn(C)c2)c1C` | 3.183 | 25.22 | 2.232 |
| `CC(c1cc(F)ccc1F)N1CCN(C(=O)c2ccc(=O)[nH]c2)CC1` (stereo not drawn) | 0.6721 | 20.14 | 5.882 |
| `CC1(c2ncc(CN(CC(=O)O)Cc3ccccc3)cn2)CCCCO1` (stereo not drawn) | -3.198 | 1.847 | -0.565 |
| `COc1ncccc1CN1CCC2(CC1)CN(c1ccccn1)CCO2.O=C(O)C(F)(F)F.O=C(O)C(F)(F)F.O=C(O)C(F)(F)F` | - | 5.303 | - |
| `Cc1ncsc1CCN(C)C1CCN(c2ncnc3[nH]cnc23)CC1` | -1.878 | 19.72 | 4.598 |
| `COc1c(C2CCCN2C(=O)CCNc2ncccn2)c(C)nn1C` (stereo not drawn) | -0.4351 | 5.312 | 3.429 |
| `COCC1CC2(CCN(Cc3cccnc3)CC2)CN1C(C)C` (stereo not drawn) | -6.8 | 20.26 | -0.8264 |
| `CC(CCNC(=O)N(C)CC1CCOCC1)N1CCCCC1` (stereo not drawn) | -4.479 | 9.743 | 2.521 |
| `CC(=O)NCCNC(=O)C(c1ccccc1C)N(C)C` (stereo not drawn) | -5.697 | -9.79 | -6.186 |
| `CCc1cc(=O)[nH]c2nnc(SCC(=O)OC)n12` | -2.21 | 16.57 | 3.306 |
| `O=C(Nc1ccc(Cl)cn1)C1CCCN(CCc2ccncc2)C1` (stereo not drawn) | -2.573 | 21.21 | 8.889 |
| `COc1ccc(-c2c(C)nn3c(=N)c(C#N)n[nH]c23)cc1` | -0.9646 | 18.22 | -1.98 |
| `CCc1nc(C2CCCN2C(=O)CCc2ccc3c(c2)OCO3)no1` (stereo not drawn) | 2.43 | 0.3939 | -4.215 |
| `Cc1ccc(CNC(=O)c2ccc(=O)n(C)n2)c(OC2CCCC2)c1` | 1.924 | 36.49 | 2.609 |
| `COc1ccc(-c2cn(CCn3c(C)cc(C)nc3=O)nn2)cn1` | 2.848 | 15.09 | 1.681 |
| `O=c1[nH][nH]cc1-c1ccnc(NCCc2cccnc2)n1` | - | 22.42 and 17.13 | 15.82 |
| `Cc1nn(C)c(N(C)C)c1CNCc1nnc2n1CCCCC2` | -2.998 | - | 4.891 |
| `CNC(=O)C1CN(C(=O)c2cccnc2)CCN(S(C)(=O)=O)C1` (stereo not drawn) | -2.902 | 9.664 | 4.545 |
| `CC(C)=CCN1Cc2nnc(C3CCOCC3)n2C(Cc2c[nH]cn2)C1` (stereo not drawn) | -2.235 | 31.41 | 3.279 |
| `Cc1noc(Cl)c1CCC(=O)N1CCN(c2ccccc2)CC1` | 6.423 | 9.738 | -0.578 |
| `O=C(O)C(F)(F)F.[H][C@@]12COC[C@]1([H])[C@@H](OCC(=O)N(C)C)CN2Cc1ccc(CC)o1` | - | 13.92 | - |
| `CC(C)(C)NC(=O)COc1ccc(CNCc2ccccn2)cc1` | -2.943 | -12.45 | -1.754 |
| `O=C(O)C(F)(F)F.[H][C@@]12CCN(c3cccnc3)C[C@]1([H])CN(C(=O)c1ccncc1)C2` | - | 28.32 | - |
| `CCOCc1cnc2n1CCN(C(=O)Cc1cccs1)C2C` (stereo not drawn) | 2.745 | 53.58 | 6.897 |
| `CCS(=O)(=O)c1ncc(CN2CCOCC2)n1CCCc1ccccc1` | -6.155 | -20.12 | 1.734 |
| `O=C(c1ccc(=O)[nH]n1)N1CCCC1CCc1ccccc1` (stereo not drawn) | -2.062 | 15.85 | 1.01 |
| `CNC(=O)c1cccc(CC2COCCN(Cc3ccsc3)C2)n1` (stereo not drawn) | -0.7026 | -7.96 | 0.3759 |
| `O=C(CCc1ccccc1Br)NCC(=O)NCc1ccccc1` | 3.601 | 1.263 | 2.116 |
| `CC(C)[C@H](N)C(=O)N1CCCC(C2=Nc3ccccc3S(=O)(=O)N2)C1` (stereo partly drawn) | -2.546 | - | 3.39 |
| `Cc1ccc(NCCCNC(=O)NCC2CCS(=O)(=O)C2)nc1` (stereo not drawn) | 1.687 | -16.08 | -4.04 |
| `COc1cc(CNCc2c(C)nn(C)c2N(C)C)ccc1OCCO` | -4.802 | 9.02 | 2.616 |
| `Cc1cccc(C(C(=O)N2CC(c3ccccn3)C2)N(C)C)c1` (stereo not drawn) | -0.4836 | -5.607 | 3.804 |
| `CN1CCN(C(C)(C)CNC(=O)C2CCCN2S(C)(=O)=O)CC1` (stereo not drawn) | -6.507 | -3.378 | 7.595 |
| `CN(Cc1cccnc1)C(CO)c1cccc(Br)c1` (stereo not drawn) | -2.583 | -2.728 | 2.439 |
| `c1cnc(N2CCO[C@H]3CN(Cc4csnn4)C[C@H]32)cn1` | -2.885 | - | 2.299 |
| `COc1c(C)cnc(CN2CCOC(Cn3cncn3)C2)c1C` (stereo not drawn) | -0.1146 | 1.315 | 3.429 |
| `O=C1C[C@@H]2CCN(Cc3ccccc3)C[C@@H]2CCN1C1CCCCC1` | 7.455 | - | 8.911 |
| `Cc1nc(COCC2CN(C(N)=O)Cc3nccn3C2)cs1` (stereo not drawn) | - | - | -1.111 |
| `Cc1nonc1C1CCCN1C(=O)c1cc2n(n1)CCCNC2` (stereo not drawn) | -1.165 | 0.1786 | 2.062 |
| `CCC[C@H]1CN(Cc2cc(C)no2)C[C@@H]1NC(=O)C1(COC)CCC1` | -3.612 | 2.076 | 5.195 |
| `CC(C)N1CCC(Nc2ccn(CCC#N)n2)C1=O` (stereo not drawn) | -5.068 | -25.76 | 5.946 |
| `CN1CC(=O)N(c2ccccc2)CC12CCN(Cc1cccnc1)C2.O=C(O)C(F)(F)F.O=C(O)C(F)(F)F.O=C(O)C(F)(F)F` (stereo not drawn) | - | 13.07 | - |
| `Cc1cc(C(=O)N2CCCC(N3CCCCCC3)C2)nn1C(C)(C)C` (stereo not drawn) | -6.813 | -9.295 | 8.247 |
| `O=c1c(NCCO)c(N2CCN(c3ccccc3)CC2)c1=O` | 0.3408 | 42.3 and 32.51 | 6.098 |
| `O=C(Cn1cc(C2CC2)nn1)NC(c1cc(F)ccc1F)C1CC1` (stereo not drawn) | -2.926 | -47.82 | 3.784 |
| `Cc1cn2c(n1)CCC(NC(=O)c1[nH]nc(C)c1Br)C2` (stereo not drawn) | 21.63 | -6.327 | 4.52 |
| `O=C(c1ccccc1)N1CCCn2c(CN3CCCCC3)nnc2C1` | 9.022 | - | 7.143 |
| `Cc1ccc([C@@H]2CN(S(=O)(=O)Cc3ccccc3)C[C@H]2N(C)C)cc1` | 10.99 | -34.97 | -4.651 |
| `CCc1nc(CN2CCCN(C(=O)c3cc(C)on3)CC2)cs1` | 1.979 | -7.687 | 0 |
| `CN(CC(=O)NS(=O)(=O)c1ccsc1)Cc1ccccc1` | -3.037 | 31.46 | 3.448 |
| `Cc1cc(Cc2ccc(S(=O)(=O)N3CCCC3)cc2)c(=O)[nH]n1` | -0.4772 | 13.45 and 7.732 | 4.878 |

Some entries from above, unchanged:

With CNC(=O)c1cc(C)n(-c2ccccc2)n1 the screen gave B: 21.3%; C: 5.682%.
With Cc1ccc(NCCCNC(=O)NCC2CCS(=O)(=O)C2)nc1 (stereo not drawn) the screen gave A: 1.687%; B: -16.08%; C: -4.04%.
With CCc1nc(CN2CCCN(C(=O)c3cc(C)on3)CC2)cs1 the screen gave A: 1.979%; B: -7.687%; C: 0%.
With COc1cc(CNCc2c(C)nn(C)c2N(C)C)ccc1OCCO the screen gave A: -4.802%; B: 9.02%; C: 2.616%.
With COc1ccc(-c2cn(CCn3c(C)cc(C)nc3=O)nn2)cn1 the screen gave A: 2.848%; B: 15.09%; C: 1.681%.
With Cc1ccc(CNC(=O)c2ccc(=O)n(C)n2)c(OC2CCCC2)c1 the screen gave A: 1.924%; B: 36.49%; C: 2.609%.
With O=C(c1ccc(=O)[nH]n1)N1CCCC1CCc1ccccc1 (stereo not drawn) the screen gave A: -2.062%; B: 15.85%; C: 1.01%.